No constants are given. Whether binding was seen depends on the method and setting. In cells and extracts the contact can be indirect. Some results given as binding are weak or reduced against the parent protein; the word gives no strength. Where a sequence is shown, tags or fusion partners need not be part of it.

In this test the target is T1, MET18-cLUC (Arabidopsis) (UniProt Q0WVF8).
T1 sequence: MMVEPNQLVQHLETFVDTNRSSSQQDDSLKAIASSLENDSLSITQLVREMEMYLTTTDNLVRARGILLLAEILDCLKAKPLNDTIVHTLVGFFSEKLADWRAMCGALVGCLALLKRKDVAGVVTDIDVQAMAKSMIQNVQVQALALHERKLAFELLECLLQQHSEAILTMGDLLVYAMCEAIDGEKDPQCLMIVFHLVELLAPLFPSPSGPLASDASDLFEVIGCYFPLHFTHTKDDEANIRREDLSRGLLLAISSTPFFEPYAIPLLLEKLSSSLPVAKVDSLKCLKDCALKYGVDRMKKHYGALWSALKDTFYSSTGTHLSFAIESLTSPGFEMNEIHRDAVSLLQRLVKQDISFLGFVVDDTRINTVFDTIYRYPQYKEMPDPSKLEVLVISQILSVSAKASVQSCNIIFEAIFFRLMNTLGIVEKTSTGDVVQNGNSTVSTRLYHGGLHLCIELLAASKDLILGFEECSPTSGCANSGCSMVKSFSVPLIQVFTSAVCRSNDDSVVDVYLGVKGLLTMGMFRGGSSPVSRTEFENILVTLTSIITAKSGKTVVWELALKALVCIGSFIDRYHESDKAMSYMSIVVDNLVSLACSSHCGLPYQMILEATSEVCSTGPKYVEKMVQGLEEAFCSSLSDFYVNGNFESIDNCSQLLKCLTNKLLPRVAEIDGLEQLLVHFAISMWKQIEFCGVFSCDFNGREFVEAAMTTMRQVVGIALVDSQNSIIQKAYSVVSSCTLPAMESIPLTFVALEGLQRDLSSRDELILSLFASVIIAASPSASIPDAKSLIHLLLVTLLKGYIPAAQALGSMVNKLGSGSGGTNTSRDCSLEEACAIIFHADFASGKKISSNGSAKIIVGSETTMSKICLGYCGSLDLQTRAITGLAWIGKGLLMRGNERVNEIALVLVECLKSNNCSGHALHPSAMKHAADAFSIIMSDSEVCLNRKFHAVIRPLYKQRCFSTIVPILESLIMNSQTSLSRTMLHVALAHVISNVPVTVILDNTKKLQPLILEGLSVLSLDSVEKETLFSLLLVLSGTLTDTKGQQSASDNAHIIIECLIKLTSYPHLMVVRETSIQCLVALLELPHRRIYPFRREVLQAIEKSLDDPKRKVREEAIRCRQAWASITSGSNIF
As to the kind of experiment: split reporter; firefly luciferase complementation imaging (split-LUC); nLUC and cLUC fusions co-infiltrated into Nicotiana benthamiana leaves, with viral p19.

B1: ROS1-nLUC (protein, UniProt Q9SJQ6 1-1393)
chain: MEKQRREESSFQQPPWIPQTPMKPFSPICPYTVEDQYHSSQLEERRFVGNKDMSGLDHLSFGDLLALANTASLIFSGQTPIPTRNTEVMQKGTEEVESLSSVSNNVAEQILKTPEKPKRKKHRPKVRREAKPKREPKPRAPRKSVVTDGQESKTPKRKYVRKKVEVSKDQDATPVESSAAVETSTRPKRLCRRVLDFEAENGENQTNGDIREAGEMESALQEKQLDSGNQELKDCLLSAPSTPKRKRSQGKRKGVQPKKNGSNLEEVDISMAQAAKRRQGPTCCDMNLSGIQYDEQCDYQKMHWLYSPNLQQGGMRYDAICSKVFSGQQHNYVSAFHATCYSSTSQLSANRVLTVEERREGIFQGRQESELNVLSDKIDTPIKKKTTGHARFRNLSSMNKLVEVPEHLTSGYCSKPQQNNKILVDTRVTVSKKKPTKSEKSQTKQKNLLPNLCRFPPSFTGLSPDELWKRRNSIETISELLRLLDINREHSETALVPYTMNSQIVLFGGGAGAIVPVTPVKKPRPRPKVDLDDETDRVWKLLLENINSEGVDGSDEQKAKWWEEERNVFRGRADSFIARMHLVQGDRRFTPWKGSVVDSVVGVFLTQNVSDHLSSSAFMSLASQFPVPFVPSSNFDAGTSSMPSIQITYLDSEETMSSPPDHNHSSVTLKNTQPDEEKDYVPSNETSRSSSEIAISAHESVDKTTDSKEYVDSDRKGSSVEVDKTDEKCRVLNLFPSEDSALTCQHSMVSDAPQNTERAGSSSEIDLEGEYRTSFMKLLQGVQVSLEDSNQVSPNMSPGDCSSEIKGFQSMKEPTKSSVDSSEPGCCSQQDGDVLSCQKPTLKEKGKKVLKEEKKAFDWDCLRREAQARAGIREKTRSTMDTVDWKAIRAADVKEVAETIKSRGMNHKLAERIQGFLDRLVNDHGSIDLEWLRDVPPDKAKEYLLSFNGLGLKSVECVRLLTLHHLAFPVDTNVGRIAVRLGWVPLQPLPESLQLHLLEMYPMLESIQKYLWPRLCKLDQKTLYELHYQMITFGKVFCTKSKPNCNACPMKGECRHFASAFASARLALPSTEKGMGTPDKNPLPLHLPEPFQREQGSEVVQHSEPAKKVTCCEPIIEEPASPEPETAEVSIADIEEAFFEDPEEIPTIRLNMDAFTSNLKKIMEHNKELQDGNMSSALVALTAETASLPMPKLKNISQLRTEHRVYELPDEHPLLAQLEKREPDDPCSYLLAIWTPGETADSIQPSVSTCIFQANGMLCDEETCFSCNSIKETRSQIVRGTILIPCRTAMRGSFPLNGTYFQVNEVFADHASSLNPINVPRELIWELPRRTVYFGTSVPTIFKGLSTEKIQACFWKGYVCVRGFDRKTRGPKPLIARLHFPASKLKGQQANLA
B1: the binding result is “binds”.

B2: AE7-nLUC (protein, UniProt Q9C9G6 1-157)
chain: MVSGLINENPIIYPKKERRLRTDTSITDELTPEPIDQLEIFDHIRDIKDPEHPNTLEDLRVVTEDSVEVDDENSYVRVTFTPTVEHCSMATVIGLCVRVKLLRSLPSRYKIDIRVAPGSHATEDALNKQLNDKERVAAALENPNLVEMVDECLPSEE
As to B2, the binding entry is recorded as “binds”.
